The filed quantity is “Percent Effect” (%).
The record does not define 0% and 100%; most values in the screen are far below 50% and negative numbers occur (in some assays of this library far below -100).
This is an unselected part of the compounds tested.
A dash means the value is not listed here; it may have been measured.

Mtb growth Cornell: 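Whole-cell assay for inhibitors of Mycobacterium tuberculosis growth, labelled Cornell in the record; the read-out is not stated. The concentration is filed as 10 mM, unlikely as a test dose, so the dose is not known. The record gives no direction; compounds strong in two other growth screens of this library score well above the rest, so higher reads as stronger inhibition. About 53,000 compounds were tested under these conditions; 1.7% (about 900) showed 50% or more at least once.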
Mtb heat-shock: 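Assay on Mycobacterium tuberculosis, filed only as a heat shock assay from Cornell; the read-out is not stated. The concentration is filed as 10 mM, unlikely as a test dose, so the dose is not known. Direction is inferred from retests: higher values go with stronger inhibition. Of about 69,000 compounds tested this way, about 930 (1.4%) reached 50% or more in at least one test.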

structure	Mtb growth Cornell	Mtb heat-shock
[H][C@]12CC[C@@H](N(C)c3ccc(C)nn3)[C@@]1([H])CN(C(=O)C1CCOCC1)C2	-1.727%	9.202%
O=C1CN(Cc2nnc(-c3ccc(Cl)cc3)o2)CCN1	-3.553%	2.526%
CCC(Nc1nc(C)nc2onc(C)c12)c1cccs1 (stereo not drawn)	9.075%	-6.219%
[H][C@@]12C[C@@H](c3nnc(C4CC4)o3)O[C@]1([H])CN(CC1CCC1)C2	-19.97%	-3.949%
Cc1nnc(NCCc2coc(-c3ccc(F)cc3)n2)c(C#N)c1C	23.27%	7.739%
O=C(O)C(F)(F)F.[H][C@@]12CCCO[C@]1([H])[C@H](N1CCCC1=O)CN(c1nnc(C)s1)C2	15.73%	-26.27%
Cc1ccccc1CC1(C(=O)O)CCCN(c2ncnc3[nH]ccc23)C1 (stereo not drawn)	8.891%	-26.77%
[H][C@@]12CN(C(=O)NCC)C[C@]1([H])OCC(=O)N2Cc1cccnc1	19.32%	7.33%
CCN1C(=O)C(c2ccccc2)CC12CCN(CCO)CC2.O=C(O)C(F)(F)F (stereo not drawn)	-	-3.526%
O=C(c1ccc(NCc2ccco2)nc1)N1CCc2ccccc21	33.89%	-1.758%
CCN1CC(O)CN(C(=O)c2cccc(C(F)(F)F)c2)CC1=O (stereo not drawn)	2.606%	31.6%
COc1c(C)cnc(CNC(=O)CCOCc2ccccc2)c1C	21.6%	11.46%
CC(C)CN(CC(O)c1ccccc1)C(=O)Nc1nccs1 (stereo not drawn)	18.41%	-6.572%
O=S(=O)(c1cccnc1)N1CCN(Cc2nc(-c3ccco3)cs2)CC1	31.36%	-4.848%
CCc1nc(CSCc2csc(CS(C)(=O)=O)n2)cs1	4.515%	0.7351%
Cc1cc(CN2CCN(CC(O)C(C)(C)C)CC2)no1 (stereo not drawn)	15.45%	-8.524%
CNC(=O)c1ccc(=O)n(Cc2csc(N(C)C(C)=O)n2)c1	11.86%	18.88%
Cc1cnn(CCNCc2cc(C)no2)c1	-	-9.889%
Cl.O=C(Nc1cccc(CNCc2ccsc2)c1)C1CC1	-	31.22%
O=C(Cc1ccc2c(c1)OCO2)N1CCN(c2ccncc2)CC1	-19.17%	-34.05%
CCc1nc2n(n1)CC(NCc1nc(C)c(C)o1)CC2 (stereo not drawn)	10.31%	10.08%
CC(C)c1nc(C2CCCN(C(=O)c3ccc4nncn4c3)C2)no1 (stereo not drawn)	-	1.157%
Cc1nc(CN(C)Cc2cc3c(cc2OC(F)F)OCO3)oc1C	11.24%	-13.4%
O=C(C1CC(=O)N(C2CCCC2)C1)N1CCN(CCn2cccc2)CC1 (stereo not drawn)	15.78%	2.266%
CN1CCOC[C@H]1c1nc(-c2ccccc2)c[nH]1	-	-31.5%
O=C(Cn1cc(-c2ccccc2)cn1)N1CCNC1=O	-15.4%	-41.12%
Cc1cn([C@@H]2CC3(CCNCC3)OC[C@@]2(C)O)c(=O)[nH]c1=O	56.73%	4.819%
CCO[C@H]1C[C@@H](O)C12CCN(C(=O)CCN1CCCC1=O)CC2	-18.22%	14.48%
COC(=O)CC(NC(=O)c1ccc(OC)cc1OC)c1cccs1 (stereo not drawn)	-17.65%	-4.629%
O=C(CCOc1ccccc1F)N1CCOCC1	-30.08%	-16.91%
Cc1ccsc1C(=O)N1CC2CC1(C(=O)NCc1ccco1)C2	-	-10.71%
Clc1cccc2c3c([nH]c12)CCN(Cc1cc2n(n1)CCNC2)C3	-3.341%	-15.48%
Cc1ncsc1CCN(C)C(=O)c1c(O)cccc1O	-15.43%	-39.08%
Cn1cc(CNCC(c2ccc(Cl)cc2)n2cccn2)cn1 (stereo not drawn)	44.63%	9.67%
O=C(O)C(F)(F)F.O=C(O)C(F)(F)F.[H][C@@]12CN(CCOC)CCO[C@]1([H])CN(Cc1ccccc1OC)C2	5.702%	-16.72%
Cn1ccnc1-c1cn(CCCc2csc(N)n2)nn1	-23.44%	-16.07%
Clc1ccc(-c2nnc(CNCCn3cccn3)o2)c(Cl)c1	-	-4.732%
Cc1nc2cc(=O)[nH]n2c(C)c1CNC(=O)C(C)(C)c1ccccc1	28.75%	-0.6395%
Cc1ccc(CNC(CN2CCN(C)CC2)c2ccccc2)cc1C (stereo not drawn)	11.46%	7.265%
CCCN(C)CC1CCN(c2ccc(Br)c(C)n2)C1 (stereo not drawn)	17.11%	-2.505%

Some entries from above, unchanged:

| structure | Mtb growth Cornell | Mtb heat-shock |
|---|---|---|
| `Cc1cn([C@@H]2CC3(CCNCC3)OC[C@@]2(C)O)c(=O)[nH]c1=O` | 56.73% | 4.819% |
| `CCN1CC(O)CN(C(=O)c2cccc(C(F)(F)F)c2)CC1=O` (stereo not drawn) | 2.606% | 31.6% |
| `Cc1ccsc1C(=O)N1CC2CC1(C(=O)NCc1ccco1)C2` | - | -10.71% |
| `Cc1cc(CN2CCN(CC(O)C(C)(C)C)CC2)no1` (stereo not drawn) | 15.45% | -8.524% |

The values are deposited in ChEMBL (CHEMBL3988442, “University of Dundee, Small-Polar-MMV Screening Library” (2021)).